Values of other authors in patent US10617722B2, “Honey-cannabinoid therapeutic composition” (Canna-B Cure Ltd, priority 2015, dated 2020).

CCCCCc1cc(O)c2c(c1)OC(C)(C)[C@@H]1CCC(C)=C[C@@H]21 [THC, tetrahydrocannabinol]
solubility in water: 0.0028 gr/L
